# Assay results taken from the supplement of paper PMC10338343.
# ± gives the standard deviation. Only a part is listed here, and it is no random draw. Many of these values have a large error.
# System: MIWI (PIWIL1) piRISC loaded with piRNA #2 (30 nt)
# Experiment: pre-steady-state target cleavage rate (min^-1); MIWI and MILI are mouse PIWI proteins and EfPiwi is from a freshwater sponge; tags in brackets are library labels; higher = faster piRNA-guided slicing of the target
# Conditions: guide: piRNA #2 5'p-UUAGGUAACCCAGUAGAUCCAGAGGAAUUC; auxiliary factor: 500 nM mouse GTSF1
# How it was run: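 With or without 500 nM GTSF1 partner protein, 1 nM active affinity-purified piRISC carrying one synthetic guide was mixed with 0.1 nM transcribed, DNA-blocked target RNA library in HEPES–potassium acetate buffer at 33 °C for 0–8 or 0–960 min. Uncleaved targets were sequenced and normalised to depth and to weakly complementary targets, three trials were pooled, and k3 was capped at 0.0001 min^-1. The pre-steady-state cleavage rate came from a burst-and-steady-state fit.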
row,Sequence,pre-steady-state target cleavage rate
1,CUUAAGGAGACCUUCUACUGGCUUACCUAA,0.00171 ± 0.0037
2,GUAUACCUCUGGAUCUACUGGGUUACCUAA,0.642 ± 0.23
3,CUUAAGGAGACCUAGAUGUCGGGUUACCUAA,0.000577 ± 0.014
4,CUUAAGGAGAGUAUCUACUGGGUUACCUAA,0.00318 ± 0.0044
5,CUUAACCUCUGGAUCUCUGGGUUACCUAA,0.00276 ± 0.0039
6,CUUAAGGAGACCUAGAUGACCGUUACCUAU [g2:g9:cont:t1U],0.000142 ± 0.018
7,CUUAAGGAGACCUAGUACUGGGUUACCUAU [g2:g15:cont:t1U],0.00141 ± 0.0036
8,CUUAAGGAGACCUAGAUGUGGGUUACCUAG [g2:g12:cont:t1G],0.000336 ± 0.02
9,CUUAAGGACUGGAUCUACUGGGUUACCAUAA,0.051 ± 0.039
10,CUUAAGGAGACCUUCGUACUGGGUUACCUAA,0.000479 ± 0.015
11,CUUAAGGAGACCUAGUACUGGGUUACCUAA,0.00126 ± 0.0044
12,CUUAAGGAGACGAUCUACUGGGUUACUUAA,0.000853 ± 0.01
13,CUUAAGGAGACCUUCAACUGGCUUACCUAA,0.000649 ± 0.011
14,CUUAAGGAGAGGAUCUACUGGGUUUCGUAA,0.000416 ± 0.019
15,CUUAAGGAGAGGAUCUACUGGGUUACCUCA,0.012 ± 0.0055
16,CUUAAGGAGACGAUCUACAGGGUUACGUAA,0.0022 ± 0.0033
17,CUUAAGGAGACGAUCUACUGGAUUACCUAA,0.00172 ± 0.0052
18,CUUAAGGAGACGAUCUACUGGGUUACGCUAA,0.00121 ± 0.011
19,CUUAAGGAGACCAUCUACUGGGUUACGAAA,0.000304 ± 0.016
20,CUUAAGGAGACGAUCCACUGGGUUACCUAA,0.00264 ± 0.0042
21,CUUAUGCUCUGGAUCUACUGGGUUACCUAA,0.124 ± 0.02
22,CAAUUCCUCUGGAUCUACAGGGUUUCCUAA,0.178 ± 0.026
23,CUUAAGGAGACCAUCAACUGGCUUACCUAA,0.000694 ± 0.01
24,CUUAAGGAGACCUUCUAGUGGGUUACGUAA,0.000255 ± 0.021

row,Sequence,pre-steady-state target cleavage rate
1,CUUAAGGUCUGGAUGAUCUGGGUUACCUAA,0.000419 ± 0.018
2,CUUAAGGAGACCUAGAUGAGCGUUACGUAA,0.00267 ± 0.0029
3,CUUAAGGAGAGGAUCCUACUGGGUUACCUAA,0.00204 ± 0.0043
4,CUUAAGGAGACCUUCUACUGGGUUACGUAA,0.00451 ± 0.0027
5,CUUAAGGACUCGAUCUACUCGGUUACCUAA,0.00199 ± 0.013
6,CUUAAGGAGACGAUCUACUCGGGUUACCUAA,0.00066 ± 0.0093
7,CUUAAGGAGACCUACUACUGGGCUUACCUAA,0.00043 ± 0.022
8,CUUAAGGAGACGAUCUACUGGGUUACGUUA,0.000883 ± 0.0065
9,CAAUUGCUCUGGAUCUACUGGGUUACCAAA,0.429 ± 0.071
10,CUUAAGGAGUGGAUCAACAGGGUUACCUAA,0.000885 ± 0.01
11,CUUAAGGAGACCUAGUACUGGGUUACCCUAA,0.000603 ± 0.0075
12,CUUAACCUCUGGAUCUACUGUGGUUACCUAA,0.00065 ± 0.013
13,CUUAAGGAGACCUACUAGUCGGUUACCUAA,0.000163 ± 0.019
14,CUUAAGGAGACGAUCUACUGGGUUGCCUAA,0.0015 ± 0.0062
15,CUUAAGGAGAGGUUCAACUGGGUUACCUAA,0.000995 ± 0.0079
16,CUUAAGGAGAGGAGCUACUGGGUUACCUAA,0.00478 ± 0.0053
17,CUUAAGGACUGGAUCUUCUGCGUUACCUAA,0.0201 ± 0.02
18,CUUAAGGAGACCUAGAUGAGCGGUUACCUAA,0.000791 ± 0.012
19,CAAUUCCUCUGGAUACUACUGGGUUACCUAA,0.519 ± 0.068
20,CAAAAGCUCUGGAUCUACUGGGUUACCUAA,0.105 ± 0.025
21,CUUAAGGACUGCGAUCUACUGGGUUACCUAA,0.0195 ± 0.026
22,CUAUACCUCAGGAUCUACUGGGUUACCUAA,0.465 ± 0.051
23,CUUAAGGAGACCGUCUACUGGGUUACCUAA,0.00109 ± 0.0075
24,CUUAAGGAGACCUAGAACUGGGUUAUCCUAA,0.000203 ± 0.031

# 6 consecutive records from above:
row,Sequence,pre-steady-state target cleavage rate
6,CUUAAGGAGACGAUCUACUCGGGUUACCUAA,0.00066 ± 0.0093
7,CUUAAGGAGACCUACUACUGGGCUUACCUAA,0.00043 ± 0.022
8,CUUAAGGAGACGAUCUACUGGGUUACGUUA,0.000883 ± 0.0065
9,CAAUUGCUCUGGAUCUACUGGGUUACCAAA,0.429 ± 0.071
10,CUUAAGGAGUGGAUCAACAGGGUUACCUAA,0.000885 ± 0.01
11,CUUAAGGAGACCUAGUACUGGGUUACCCUAA,0.000603 ± 0.0075

# Later entries

row,Sequence,pre-steady-state target cleavage rate
1,CUUAAGGAGACCUUCUACUGGGUUACCGUAA,0.000925 ± 0.016
2,CUUAAGGAGUGGAUGUACUGGGUAACCUAA,0.00324 ± 0.012
3,CUUAAGGAGAGGAUCUACUGGGUUAACCUAA,0.00722 ± 0.0036
4,CUUAAGGAGACCUACAACUGGCUUACCUAA,0.00022 ± 0.025
5,CUUAAGGAGACCUACUACUGGGUUACCCAA,0.00223 ± 0.0032
6,CUUAAGGACUGGAUCUACUGGGUUCCCUAA,0.0186 ± 0.02
7,CUUAAGGAGAGGUUCUUCUGGGUUACCUAA,0.00145 ± 0.0049
8,CUUAAGGAGUGGAUCAACUGGGUUAGCUAA,0.00179 ± 0.0083
9,CUUAAGGAGUGGAUCUAGUGGGUAACCUAA,0.000329 ± 0.017
10,CUUAAGGAGACGAUCUACUGCGAUACCUAA,0.00217 ± 0.0039
11,CUUAAGGAGACGAUCUACUCCCUUACCUAA,0.000386 ± 0.013
12,CUAUUCCACUGGAUCUACUGCGUUACCUAA,0.542 ± 0.056
13,CUUAAGGAGACCUAGAUCGUGGGUUACCUAA,0.000726 ± 0.0082
14,CUUAACCUCUGGAUCUCACUGGGUUACCUAA,0.00136 ± 0.0066
15,CUUAAGGAGACGUUCUACUGGGUUACCAAA,0.000244 ± 0.02
16,CUUAAGGAGACCUUCUUCUGGCUUACCUAA,0.000849 ± 0.0082
17,CUUAAGGAGACGAUUCUACUGGGUUACCUAA,0.00227 ± 0.0047
18,CUAUUCCUCUCGAUCUACUGCGUUACCUAA,0.948 ± 0.092
19,CAAUUCCUCUGGAUCUACAUGGGUUACCUAA,0.00364 ± 0.0048
20,CUUUUCCUCUGGAUCUACUAGGGUUACCUAA,0.00312 ± 0.0049
21,CUUAAGGAGACCAUCUACUGGGUAUCCUAA,0.000683 ± 0.0096
22,CUAUUCCUCUGGAUCAUGUGGGUUACCUAA,0.00031 ± 0.024
